In PubChem BioAssay AID328 (DTP/NCI, 2004):
The list is a part of this screen's results and no random one: it gathers some chemical classes. Other doses and runs of a compound may be missing. T/C is the treated group as % of the vehicle group. Some entries give survivors of the animals treated and no T/C: the source files T/C as zero there, which appears to mark a toxic dose or a test without result, not a measured value. Some survivor counts are full or nearly so, which does not show that the dose was tolerated: the source hardly ever lists a survival T/C far under the control, and the zero likely stands for such cases as well. Survivors were counted at the toxicity check, usually on the fifth day, unless a day is given; later deaths do not show. Schedules are NCI's codes, read here as Q, the interval in days (D) or hours (H), X, the number of doses. Where survival is the endpoint, the PubChem record calls one and a half times the control and up active, and a quarter to a half above the control has no call in these data; cut-offs in other NCI protocols can differ. Some T/C values carry the count of animals alive at the toxicity check (mostly the fifth day); without a count or a note in brackets, all were alive then. Some entries were tested several times; the results are listed from low to high. Some entries show no survivor count and are marked so; the dose need not have been tolerated.

Tested on: BDF1 mice, P388 leukemia ip, median survival T/C
Test: NCI In Vivo Anticancer Drug Screen. Data for tumor model P388 Leukemia (intraperitoneal) in B6D2F1 (BDF1) mice
Conditions: T/C endpoint: median survival time, higher T/C = longer survival
Method in brief: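 Each value expresses how treatment altered survival: treated-mouse outcome over vehicle-mouse outcome, both groups bearing the transplanted tumour.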

[1] = dose: 8.2 mg/kg/injection, schedule: Q01DX009 (ip), vehicle: saline
[2] = dose: 100.0 mg/kg/injection, schedule: Q01DX009 (ip), vehicle: saline
[3] = dose: 200.0 mg/kg/injection, schedule: Q01DX009 (ip), vehicle: saline
[4] = dose: 400.0 mg/kg/injection, schedule: Q01DX009 (ip), vehicle: saline
[5] = dose: 100.0 mg/kg/injection, schedule: Q04DX003 (ip), vehicle: saline with Tween-80
[6] = dose: 200.0 mg/kg/injection, schedule: Q04DX003 (ip), vehicle: saline with Tween-80
[7] = dose: 50.0 mg/kg/injection, schedule: Q04DX003 (ip), vehicle: saline with Tween-80

CCCCCCCCCCCCCCCCCC[N+](C)(C)C.F[P-](F)(F)(F)(F)F
survivor count (dose: 12.5 mg/kg/injection, schedule: Q01DX009 (ip), vehicle: Klucel (hydroxypropylcellulose) (HPC)): 5 of 6 | survivor count (dose: 25.0 mg/kg/injection, schedule: Q01DX009 (ip), vehicle: Klucel (hydroxypropylcellulose) (HPC)): 3 of 6 | survivor count (dose: 50.0 mg/kg/injection, schedule: Q01DX009 (ip), vehicle: Klucel (hydroxypropylcellulose) (HPC)): 0 of 6

Fc1ccc(N(CCCl)CCCl)cc1
T/C (dose: 100.0 mg/kg/injection, schedule: Q04DX002 (ip), vehicle: saline with Tween-80): 127 % of control [5 of 6 alive] | T/C (dose: 200.0 mg/kg/injection, schedule: Q04DX002 (ip), vehicle: saline with Tween-80): 142 % of control | T/C (dose: 266.0 mg/kg/injection, schedule: Q04DX002 (ip), vehicle: saline with Tween-80): 152 % of control | T/C (dose: 400.0 mg/kg/injection, schedule: Q04DX002 (ip), vehicle: saline with Tween-80): 144 and 161 % of control [5 of 6 alive] | survivor count (dose: 600.0 mg/kg/injection, schedule: Q04DX002 (ip), vehicle: saline with Tween-80): 3 of 6

CCN(CCCl)CC1OC(OC)C2OC(C)(C)OC12 (stereo unspecified)
T/C (dose: 2.0 mg/kg/injection, schedule: Q01DX009 (ip), vehicle: saline): 158 % of control [5 of 6 alive] | T/C (dose: 4.1 mg/kg/injection, schedule: Q01DX009 (ip), vehicle: saline): 195 % of control | T/C [1]: 211 % of control [5 of 6 alive] | survivor count [1]: 3 of 6 | T/C (dose: 8.3 mg/kg/injection, schedule: Q04DX003 (ip), vehicle: saline): 162 % of control | T/C (dose: 12.5 mg/kg/injection, schedule: Q01DX009 (ip), vehicle: saline): 141 [4 of 6 alive] and 188 % of control [4 of 6 alive] | T/C (dose: 12.5 mg/kg/injection, schedule: Q04DX003 (ip), vehicle: saline): 133 % of control | T/C (dose: 18.0 mg/kg/injection, schedule: Q01DX009 (ip), vehicle: saline): 94 [4 of 6 alive] and 104 % of control [5 of 6 alive] | T/C (dose: 18.75 mg/kg/injection, schedule: Q04DX003 (ip), vehicle: saline): 166 % of control | survivor count (dose: 50.0 mg/kg/injection, schedule: Q01DX009 (ip), vehicle: saline): 0 of 6 | survivor count [2]: 0 of 6 | survivor count [3]: 0 of 6 | survivor count [4]: 0 of 6

CCC[As](=O)(O)O
T/C (dose: 11.0 mg/kg/injection, schedule: Q01DX001 (ip), vehicle: saline): 100 % of control | T/C (dose: 16.0 mg/kg/injection, schedule: Q01DX001 (ip), vehicle: saline): 100 % of control | T/C (dose: 25.0 mg/kg/injection, schedule: Q01DX001 (ip), vehicle: Klucel (hydroxypropylcellulose) (HPC)): 131 % of control | T/C (dose: 25.0 mg/kg/injection, schedule: Q01DX001 (ip), vehicle: saline): 104 % of control | T/C (dose: 37.5 mg/kg/injection, schedule: Q01DX001 (ip), vehicle: saline): 100 % of control | T/C (dose: 50.0 mg/kg/injection, schedule: Q01DX001 (ip), vehicle: Klucel (hydroxypropylcellulose) (HPC)): 109 % of control | T/C (dose: 100.0 mg/kg/injection, schedule: Q01DX001 (ip), vehicle: Klucel (hydroxypropylcellulose) (HPC)): 90 [4 of 6 alive] and 118 % of control | survivor count (dose: 200.0 mg/kg/injection, schedule: Q01DX001 (ip), vehicle: Klucel (hydroxypropylcellulose) (HPC)): 3 of 6 | survivor count (dose: 400.0 mg/kg/injection, schedule: Q01DX001 (ip), vehicle: Klucel (hydroxypropylcellulose) (HPC)): 1 of 6

O=C(O)Cc1ccc(N(CCCl)CCCl)cc1
T/C (dose: 4.0 mg/kg/injection, schedule: Q04DX003 (ip), vehicle: saline with Tween-80): 140 % of control | T/C (dose: 4.12 mg/kg/injection, schedule: Q04DX003 (ip), vehicle: saline with Tween-80): 145 % of control | T/C (dose: 6.0 mg/kg/injection, schedule: Q04DX003 (ip), vehicle: saline with Tween-80): 150 % of control | T/C (dose: 6.25 mg/kg/injection, schedule: Q04DX003 (ip), vehicle: saline with Tween-80): 190 % of control | T/C (dose: 9.0 mg/kg/injection, schedule: Q04DX003 (ip), vehicle: saline with Tween-80): 154 % of control | T/C (dose: 9.3 mg/kg/injection, schedule: Q04DX003 (ip), vehicle: saline with Tween-80): 190 % of control | survivor count [5]: 1 of 6 | survivor count [6]: 0 of 6 | survivor count (dose: 400.0 mg/kg/injection, schedule: Q04DX003 (ip), vehicle: saline with Tween-80): 0 of 6

O=Cc1ccc(N(CCI)CCI)cc1
T/C (dose: 75.0 mg/kg/injection, schedule: Q01DX009 (ip), vehicle: saline with Tween-80): 136 % of control | T/C (dose: 132.0 mg/kg/injection, schedule: Q04DX003 (ip), vehicle: saline with Tween-80): 150 % of control | T/C (dose: 150.0 mg/kg/injection, schedule: Q01DX009 (ip), vehicle: saline with Tween-80): 86 % of control | T/C [6]: 154 % of control | survivor count (dose: 300.0 mg/kg/injection, schedule: Q01DX009 (ip), vehicle: saline with Tween-80): 5 of 6 | T/C (dose: 300.0 mg/kg/injection, schedule: Q04DX003 (ip), vehicle: saline with Tween-80): 163 % of control

C1CCCC2NC2CC1.O=[N+]([O-])c1cc([N+](=O)[O-])c(O)c([N+](=O)[O-])c1
T/C [7]: 109 % of control [survivor count not shown] | T/C [5]: 109 % of control [survivor count not shown] | T/C [6]: 109 % of control [survivor count not shown]

N=C(N[N+](=O)[O-])N(CCN1CCN=C1N[N+](=O)[O-])N=O
T/C [2]: 113 % of control [5 of 6 alive] | T/C (dose: 100.0 mg/kg/injection, schedule: Q04DX003 (ip), vehicle: saline sonified): 100 % of control | T/C [3]: 113 % of control | T/C (dose: 200.0 mg/kg/injection, schedule: Q04DX003 (ip), vehicle: saline sonified): 100 % of control | T/C [4]: 113 % of control | T/C (dose: 400.0 mg/kg/injection, schedule: Q04DX003 (ip), vehicle: saline sonified): 100 % of control

NC(CC(=O)O)c1cccc(N(CCCl)CCCl)c1 (stereo unspecified)
T/C (dose: 25.0 mg/kg/injection, schedule: Q04DX003 (ip), vehicle: saline with Tween-80): 250 % of control | T/C [7]: 250 % of control | T/C [5]: 112 % of control

NC1CCCCC1.O=P(O)(NCCCO)N(CCCl)CCCl
T/C (dose: 25.0 mg/kg/injection, schedule: Q01DX010 (ip), vehicle: saline): 176 % of control | T/C (dose: 50.0 mg/kg/injection, schedule: Q01DX010 (ip), vehicle: saline): 180 % of control | T/C (dose: 100.0 mg/kg/injection, schedule: Q01DX010 (ip), vehicle: saline): 230 % of control | T/C (dose: 200.0 mg/kg/injection, schedule: Q01DX010 (ip), vehicle: saline): 134 % of control | survivor count (dose: 400.0 mg/kg/injection, schedule: Q01DX010 (ip), vehicle: saline): 1 of 6

O=P1(N(CCCl)CCCl)OCCCN1CCCl (stereo unspecified)
T/C (dose: 0.8 mg/kg/injection, schedule: Q01DX010 (ip), vehicle: carboxymethylcellulose (CMC)): 90 % of control | T/C (dose: 1.5 mg/kg/injection, schedule: Q01DX010 (ip), vehicle: carboxymethylcellulose (CMC)): 90 % of control [5 of 6 alive] | T/C (dose: 3.0 mg/kg/injection, schedule: Q01DX010 (ip), vehicle: carboxymethylcellulose (CMC)): 100 % of control | T/C (dose: 6.0 mg/kg/injection, schedule: Q01DX010 (ip), vehicle: carboxymethylcellulose (CMC)): 90 % of control [5 of 6 alive] | T/C (dose: 12.5 mg/kg/injection, schedule: Q01DX010 (ip), vehicle: carboxymethylcellulose (CMC)): 261 % of control | T/C (dose: 25.0 mg/kg/injection, schedule: Q01DX010 (ip), vehicle: carboxymethylcellulose (CMC)): 300 % of control | survivor count (dose: 50.0 mg/kg/injection, schedule: Q01DX010 (ip), vehicle: carboxymethylcellulose (CMC)): 6 of 6 | T/C (dose: 100.0 mg/kg/injection, schedule: Q01DX010 (ip), vehicle: carboxymethylcellulose (CMC)): 94 % of control [4 of 6 alive] | survivor count (dose: 200.0 mg/kg/injection, schedule: Q01DX010 (ip), vehicle: carboxymethylcellulose (CMC)): 6 of 6
